Data published in patent US20110105472A1, “Diaminopyrimidines as crop protection agents” (Bayer CropScience AG, priority 2008, published 2011).
Some results were stated once for a whole list of compounds, not compound by compound.

Assays:
Puccinia recondita = assay: Puccinia test (wheat)/protective; details: active compound concentration 1000 ppm, protective, evaluation 10 days after inoculation
Pyricularia oryzae = assay type: in vivo; details: active compound concentration 250 ppm; rice, protective; evaluation 7 days after inoculation
[1] = test system: apple scab pathogen Venturia inaequalis; assay: Venturia test (apple)/protective; assay type: in vivo; details: active compound concentration 100 ppm, protective, evaluation 10 days after inoculation
Sphaerotheca fuliginea = assay: Sphaerotheca test (cucumber)/protective; assay type: in vivo; details: active compound concentration 500 ppm, protective, evaluation 7 days after inoculation
Gibberella zeae = assay type: in vivo; details: active compound concentration 250 ppm; rice, protective; evaluation 4 days after inoculation
Alternaria solani = assay: Alternaria test (tomato)/protective; assay type: in vivo; details: active compound concentration 500 ppm, protective, evaluation 7 days after inoculation
Rhizoctonia solani = assay: Rhizoctonia test (rice)/protective; assay type: in vivo; details: active compound concentration 250 ppm, protective, evaluation 4 days after inoculation
[2] = test system: Fusarium nivale (var. majus); assay: Fusarium nivale (var. majus) test (wheat)/protective; assay type: in vivo; details: active compound concentration 1000 ppm, protective, evaluation 6 days after inoculation
Leptosphaeria nodorum = Leptosphaeria nodorum test (wheat)/protective; assay type: in vivo; details: active compound concentration 1000 ppm, protective, evaluation 10 days after inoculation
[3] = test system: bean rust pathogen Uromyces appendiculatus; assay: Uromyces test (bean)/protective; assay type: in vivo; details: active compound concentration 100 ppm, protective, evaluation 10 days after inoculation
Boophilus microplus = Boophilus microplus test (BOOPMI injection); assay type: in vivo; details: application rate 20 μg/animal; injection into the abdomen

Compound | efficacy (Puccinia recondita) | efficacy (Pyricularia oryzae) | efficacy [1] | efficacy (Sphaerotheca fuliginea) | efficacy (Gibberella zeae) | efficacy (Alternaria solani) | efficacy (Rhizoctonia solani) | efficacy [2] | efficacy (Leptosphaeria nodorum) | efficacy [3] | activity (deposition of fertile eggs) (Boophilus microplus)
O=c1[nH]c2ccc(Nc3ncc(Br)c(NC4CCC4)n3)cc2o1 [Compound 5] | ≥ 70% | ≥ 80% | ≥ 70% | ≥ 70% | ≥ 80% | ≥ 70% | ≥ 80% |  |  |  | 
O=C1CCCCCN1c1cccc(Nc2ncc(Br)c(NC3CCC3)n2)c1 [Compound 215] | ≥ 70% | ≥ 80% |  | ≥ 70% |  |  | ≥ 80% | ≥ 70% | ≥ 70% |  | 
CC(C)Sc1cccc(Nc2ncc(Cl)c(NC3CCC3)n2)c1 [Compound 146] | ≥ 70% | ≥ 80% |  | ≥ 70% | ≥ 80% | ≥ 70% | ≥ 80% |  |  |  | 
O=C1CCCCN1c1cccc(Nc2ncc(Br)c(NC3CCC3)n2)c1 [Compound 217] | ≥ 70% | ≥ 80% |  |  |  |  | ≥ 80% |  |  |  | 
OC(c1cccc(Nc2ncc(Cl)c(NC3CCC3)n2)c1)C(F)(F)F (stereo not drawn) [Compound 218] | ≥ 70% | ≥ 80% | ≥ 70% |  |  | ≥ 70% |  | ≥ 70% | ≥ 70% | ≥ 70% | 
CN(C)C(=O)c1ccc(Nc2ncc(Br)c(NC3CCC3)n2)cc1 [Compound 100] | ≥ 70% |  |  | ≥ 70% | ≥ 80% | ≥ 70% | ≥ 80% |  |  | ≥ 70% | ≥ 80%
CN(C)C(=O)c1cccc(Nc2ncc(Br)c(NC3CCC3)n2)c1 [Compound 155] | ≥ 70% | ≥ 80% |  | ≥ 70% | ≥ 80% | ≥ 70% | ≥ 80% | ≥ 70% |  |  | 
CCSc1cccc(Nc2ncc(Cl)c(NC3CCC3)n2)c1 [Compound 188] | ≥ 70% | ≥ 80% |  | ≥ 70% | ≥ 80% | ≥ 70% | ≥ 80% | ≥ 70% | ≥ 70% |  | 
Cc1cccc(Nc2ncc(Cl)c(NC3CCC3)n2)c1 [Compound 231] | ≥ 70% | ≥ 80% |  | ≥ 70% |  | ≥ 70% |  |  |  |  | 
CC(C)c1cccc(Nc2ncc(C(F)(F)F)c(NC3CCC3)n2)c1 [Compound 225] | ≥ 70% | ≥ 80% |  | ≥ 70% |  |  | ≥ 80% |  |  |  | 
O=C1N(CCCl)CCN1c1cccc(Nc2ncc(Br)c(NC3CCC3)n2)c1 [Compound 206] | ≥ 70% | ≥ 80% | ≥ 70% | ≥ 70% |  | ≥ 70% | ≥ 80% |  |  |  | 
N#CCc1cccc(Nc2ncc(Br)c(NC3CCC3)n2)c1 [Compound 220] | ≥ 70% | ≥ 80% | ≥ 70% |  |  |  | ≥ 80% | ≥ 70% | ≥ 70% |  | 
COc1cccc(Nc2ncc(Cl)c(NC3CCC3)n2)c1 [Compound 109] |  | ≥ 80% |  | ≥ 70% |  |  | ≥ 80% | ≥ 70% | ≥ 70% | ≥ 70% | 
CCc1nc2cc(Nc3ncc(Br)c(NC4CCC4)n3)ccc2o1 [Compound 21] |  | ≥ 80% |  |  |  |  |  |  |  |  | 
Ic1cnc(Nc2ccccc2)nc1NC1CCC1 [Compound 236] |  | ≥ 80% |  |  |  |  | ≥ 80% |  |  |  | 
Cc1cccc(Nc2ncc(Br)c(NC3CCC3)n2)c1 [Compound 224] |  | ≥ 80% |  | ≥ 70% |  | ≥ 70% | ≥ 80% | ≥ 70% | ≥ 70% |  | 

Compound | efficacy (Puccinia recondita) | efficacy (Pyricularia oryzae) | efficacy [1] | efficacy (Sphaerotheca fuliginea) | efficacy (Gibberella zeae) | efficacy (Alternaria solani) | efficacy (Rhizoctonia solani) | efficacy [2] | efficacy (Leptosphaeria nodorum) | efficacy [3] | activity (deposition of fertile eggs) (Boophilus microplus)
CSc1cccc(Nc2ncc(C(F)(F)F)c(NC3CCC3)n2)c1 [Compound 57] | ≥ 70% |  |  | ≥ 70% | ≥ 80% |  | ≥ 80% | ≥ 70% | ≥ 70% |  | 
CSc1cccc(Nc2ncc(Cl)c(NC3CCC3)n2)c1 [Compound 128] | ≥ 70% |  |  | ≥ 70% | ≥ 80% |  | ≥ 80% |  |  | ≥ 70% | 
O=C1COCCN1c1ccc(Nc2ncc(Br)c(NC3CCC3)n2)cc1 [Compound 50] | ≥ 70% |  | ≥ 70% |  | ≥ 80% | ≥ 70% | ≥ 80% |  |  |  | 
CCS(=O)(=O)c1nc2ccc(Nc3ncc(Br)c(NC4CCC4)n3)cc2s1 [Compound 3] | ≥ 70% |  |  |  |  |  |  |  |  |  | 
CN(C)S(=O)(=O)c1cccc(Nc2ncc(Br)c(NC3CCC3)n2)c1 [Compound 157] | ≥ 70% | ≥ 80% |  | ≥ 70% |  | ≥ 70% | ≥ 80% | ≥ 70% | ≥ 70% | ≥ 70% | 
O=CNc1cccc(Nc2ncc(Br)c(NC3CCC3)n2)c1 [Compound 154] | ≥ 70% | ≥ 80% | ≥ 70% |  | ≥ 80% |  | ≥ 80% | ≥ 70% | ≥ 70% |  | 
CC(=O)c1cc(Nc2ncc(Br)c(NC3CCC3)n2)ccc1Cl [Compound 150] |  | ≥ 80% |  |  |  |  | ≥ 80% | ≥ 70% | ≥ 70% |  | 
COc1cccc(Nc2ncc(C(F)(F)F)c(NC3CCC3)n2)c1 [Compound 238] |  | ≥ 80% | ≥ 70% |  |  |  | ≥ 80% |  |  |  | 
CC(C#N)c1ccc(Nc2ncc(Cl)c(NC3CCC3)n2)cc1 (stereo not drawn) [Compound 234] | ≥ 70% | ≥ 80% | ≥ 70% |  |  | ≥ 70% | ≥ 80% |  |  |  | 
CN1CCN(c2cccc(Nc3ncc(Cl)c(NC4CCC4)n3)c2)C1=O [Compound 237] | ≥ 70% | ≥ 80% |  | ≥ 70% |  |  | ≥ 80% |  |  |  | 
Oc1cccc(Nc2ncc(Br)c(NC3CCC3)n2)c1 [Compound 178] | ≥ 70% | ≥ 80% |  |  |  | ≥ 70% |  |  |  |  | 
Cc1cc(C)c(C)c(Nc2ncc(Br)c(NC3CCC3)n2)c1 [Compound 61] | ≥ 70% | ≥ 80% |  | ≥ 70% |  |  | ≥ 80% |  |  |  | 
Cl.Clc1cnc(Nc2ccccc2)nc1NC1CCC1 [Compound 2-2] |  | ≥ 80% | ≥ 70% | ≥ 70% |  | ≥ 70% | ≥ 80% | ≥ 70% | ≥ 70% | ≥ 70% | 
N#CCc1cc(Nc2ncc(Br)c(NC3CCC3)n2)ccc1F [Compound 219] |  | ≥ 80% |  |  |  |  |  |  |  |  | 
CCN(CC)C(=O)c1cccc(Nc2ncc(Br)c(NC3CCC3)n2)c1 [Compound 252] | ≥ 70% | ≥ 80% | ≥ 70% | ≥ 70% |  |  | ≥ 80% |  |  | ≥ 70% | 
CSc1ccc(Nc2ncc(Cl)c(NC3CCC3)n2)cc1 [Compound 129] | ≥ 70% | ≥ 80% |  | ≥ 70% | ≥ 80% |  | ≥ 80% |  |  |  | ≥ 80%
